Values of other authors, collected in US20070004639A1, “Methods and compositions for treating Parkinson's disease” (BodyBio, Inc., priority 2005, published 2007).
For part of these data: At least one compound was matched to its structure with a doubt left. Some entries share one result that the patent states for a list of compounds.

How the values were obtained:
Parkinson's Disease [1] = conditions: human, in vivo; cited from earlier work
Parkinson's Disease [2] = conditions: over ten years; cited from earlier work

Compound	blood in the urine (hematuria), patients (Parkinson's Disease [1])	motor function compared to the carbidopa/levodopa group (Parkinson's Disease [2])
CCN(CC)C(=O)/C(C#N)=C/c1cc(O)c(O)c([N+](=O)[O-])c1 [entacapone]	less than 1%	–
Cc1ccc(C(=O)c2cc(O)c(O)c([N+](=O)[O-])c2)cc1 [tolcapone]	less than 1%	–
CC(C)C[C@H]1C(=O)N2CCC[C@H]2[C@]2(O)O[C@](NC(=O)[C@@H]3C=C4c5cccc6[nH]c(Br)c(c56)C[C@H]4N(C)C3)(C(C)C)C(=O)N12 [bromocriptine]	–	worsening
